Where a name gives a salt, the structure may show the parent alone. This is one part of the list. Single values are uncertain here, since repeats match poorly.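 Cells: ReNCell VM human fetal ventral-midbrain neural progenitors, differentiated mitogen-free. Blinded raters compared doublecortin-stained (early neurons) or tyrosine hydroxylase-stained (dopaminergic neurons) images with untreated wells, where 0 means no change. After repeats and both raters were averaged, compounds scoring 2 or above became hits for retesting.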
Tests used:
ReNCell VM [1] = experiment: neuronal differentiation score (DCX+ cell fraction vs untreated, manual image score) (score (-3 to 3)); higher = more neuronal differentiation; conditions: 2 uM, 2 weeks
ReNCell VM [2] = experiment: dopaminergic neuron differentiation score (TH+ cell fraction vs untreated, manual image score) (score (0 to 3)); higher = more TH+ dopaminergic neuron differentiation; conditions: 2 uM, 4 weeks, BDNF 10 ng/ml + GDNF 10 ng/ml

NC12CC3CC(CC(C3)C1)C2 [Adamantamine fumarate]
neuronal differentiation score (ReNCell VM [1]; library: Prestwick): inactive: 0 | dopaminergic neuron differentiation score (ReNCell VM [2]; library: Prestwick): inactive: 0

O=C(Nc1ccccc1)N[C@@H]1C[C@@H](C(=O)O)Nc2cc(Cl)cc(Cl)c21
neuronal differentiation score (ReNCell VM [1]; library: Tocriscreen): inactive: 0 | dopaminergic neuron differentiation score (ReNCell VM [2]; library: Tocriscreen): inactive: 0

CC(=O)Nc1ccc(OC(C)=O)cc1
neuronal differentiation score (ReNCell VM [1]; library: Spectrum): inactive: 0 | dopaminergic neuron differentiation score (ReNCell VM [2]; library: Spectrum): inactive: 0

CO[C@@H]1[C@@H](OC(N)=O)[C@@H](O)[C@H](Oc2ccc3c(O)c(NC(=O)c4ccc(O)c(CC=C(C)C)c4)c(=O)oc3c2C)OC1(C)C [Novobiocin sodium salt]
neuronal differentiation score (ReNCell VM [1]; library: Prestwick): inactive: 0 | dopaminergic neuron differentiation score (ReNCell VM [2]; library: Prestwick): inactive: 0

Cc1cccc(C)c1NC(=O)c1ccccc1C(=O)O
neuronal differentiation score (ReNCell VM [1]; library: Spectrum): inactive: 0 | dopaminergic neuron differentiation score (ReNCell VM [2]; library: Spectrum): inactive: 1

O=C(O)c1cccnc1
neuronal differentiation score (ReNCell VM [1]; library: Spectrum): inactive: 0 | dopaminergic neuron differentiation score (ReNCell VM [2]; library: Spectrum): inactive: 0

O.O.O.O.O=C([O-])CC(O)(CC(=O)[O-])C(=O)[O-].[Li+].[Li+].[Li+]
neuronal differentiation score (ReNCell VM [1]; library: Spectrum): inactive: 0 | dopaminergic neuron differentiation score (ReNCell VM [2]; library: Spectrum): inactive: 1

O=C1NN(C(=O)Nc2ccc(Br)cc2)[C@@H](c2ccccc2)[C@@H]1c1ccccc1
neuronal differentiation score (ReNCell VM [1]; library: Tocriscreen): inactive: 0 | dopaminergic neuron differentiation score (ReNCell VM [2]; library: Tocriscreen): inactive: 0

CCN(Cc1ccncc1)C(=O)C(CO)c1ccccc1 (stereo not drawn)
neuronal differentiation score (ReNCell VM [1]; library: Spectrum): inactive: 0 | dopaminergic neuron differentiation score (ReNCell VM [2]; library: Spectrum): inactive: 0

CC(C)(C)CC(C)(C)c1cc(Cc2cc(C(C)(C)CC(C)(C)C)cc(-n3nc4ccccc4n3)c2O)c(O)c(-n2nc3ccccc3n2)c1
neuronal differentiation score (ReNCell VM [1]; library: Spectrum): inactive: 0 | dopaminergic neuron differentiation score (ReNCell VM [2]; library: Spectrum): inactive: 0

CC(C)(C)NC[C@H](O)c1ccc(O)c(CO)c1 [Levalbuterol hydrochloride]
neuronal differentiation score (ReNCell VM [1]; library: Prestwick): inactive: 0 | dopaminergic neuron differentiation score (ReNCell VM [2]; library: Prestwick): inactive: 0

COc1ncnc(NS(=O)(=O)c2ccc(N)cc2)c1OC
neuronal differentiation score (ReNCell VM [1]; library: Spectrum): inactive: 0 | dopaminergic neuron differentiation score (ReNCell VM [2]; library: Spectrum): inactive: 0

CCCCCCCCCCCCCCC[C@H](O)[C@H](N)CO (racemic) [DL-erythro-Dihydrosphingosine]
neuronal differentiation score (ReNCell VM [1]; library: LOPAC): inactive: -1 | dopaminergic neuron differentiation score (ReNCell VM [2]; library: LOPAC): inactive: 0

Nc1nc(=S)c2ncn([C@@H]3O[C@H](CO)[C@@H](O)[C@H]3O)c2[nH]1
neuronal differentiation score (ReNCell VM [1]; library: Spectrum): inactive: -1 | dopaminergic neuron differentiation score (ReNCell VM [2]; library: Spectrum): inactive: 0

CCCCCCCCCCCCCCCCCCOCC(COP(=O)([O-])OCC[N+](C)(C)C)OC (stereo not drawn)
neuronal differentiation score (ReNCell VM [1]; library: LOPAC): inactive: 0 | dopaminergic neuron differentiation score (ReNCell VM [2]; library: LOPAC): inactive: 0

C=C[C@@]1(C)CC(=O)[C@@]2(O)[C@](C)(O1)[C@@H](O)[C@@H](O)C1C(C)(C)CC[C@H](O)[C@@]12C (stereo partly drawn)
neuronal differentiation score (ReNCell VM [1]; library: Spectrum): inactive: 0 | dopaminergic neuron differentiation score (ReNCell VM [2]; library: Spectrum): inactive: 0

Nc1cc(Cl)c(NC2=NCCN2)c(Cl)c1 [p-Aminoclonidine hydrochloride]
neuronal differentiation score (ReNCell VM [1]; library: LOPAC): inactive: 0 | dopaminergic neuron differentiation score (ReNCell VM [2]; library: LOPAC): inactive: 0

CC(=O)Nc1cc2ccccc2oc1=O [3-Acetamidocoumarin]
neuronal differentiation score (ReNCell VM [1]; library: Phytochemical): inactive: 0 | dopaminergic neuron differentiation score (ReNCell VM [2]; library: Phytochemical): inactive: 0

CC1=C(C(=O)OCCN(Cc2ccccc2)c2ccccc2)C(c2cccc([N+](=O)[O-])c2)C(P2(=O)OCC(C)(C)CO2)=C(C)N1 (stereo not drawn) [Efonidipine hydrochloride monoethanolate]
neuronal differentiation score (ReNCell VM [1]; library: Tocriscreen): inactive: 0 | dopaminergic neuron differentiation score (ReNCell VM [2]; library: Tocriscreen): inactive: 1

CC(=O)SCC[N+](C)(C)C [Acetylthiocholine chloride]
neuronal differentiation score (ReNCell VM [1]; library: LOPAC): inactive: 0 | dopaminergic neuron differentiation score (ReNCell VM [2]; library: LOPAC): inactive: 0

N=C(N)NCCCCN [Agmatine sulfate]
neuronal differentiation score (ReNCell VM [1]; library: LOPAC): inactive: 0 | dopaminergic neuron differentiation score (ReNCell VM [2]; library: LOPAC): inactive: 0

COc1ccc2cnoc(=O)c2c1OC [7,8-dimethoxy-benzo[d][1,2]oxazin-1-one]
neuronal differentiation score (ReNCell VM [1]; library: Natural): inactive: 0 | dopaminergic neuron differentiation score (ReNCell VM [2]; library: Natural): inactive: 0

CC(=O)C1(C)CC2(CC(C)(C)OC2=O)C(=O)O1 (stereo not drawn)
neuronal differentiation score (ReNCell VM [1]; library: Natural): inactive: 0 | dopaminergic neuron differentiation score (ReNCell VM [2]; library: Natural): inactive: 0

COc1cc(O)cc(O)c1C(=O)/C=C/c1ccccc1 [Cardamonin]
neuronal differentiation score (ReNCell VM [1]; library: Phytochemical): inactive: 0 | dopaminergic neuron differentiation score (ReNCell VM [2]; library: Phytochemical): inactive: 0

C=C(CC)C(=O)c1ccc(OCC(=O)O)c(Cl)c1Cl [Ethacrynic acid]
neuronal differentiation score (ReNCell VM [1]; library: Prestwick): inactive: 0 | dopaminergic neuron differentiation score (ReNCell VM [2]; library: Prestwick): inactive: 0

CN1[C@@H]2CC[C@H]1C[C@@H](OC(=O)C(O)c1ccccc1)C2 (stereo partly drawn)
neuronal differentiation score (ReNCell VM [1]; library: Spectrum): inactive: -1 | dopaminergic neuron differentiation score (ReNCell VM [2]; library: Spectrum): inactive: 0

COC(=O)N/N=C/c1c[n+]([O-])c2ccccc2[n+]1[O-]
neuronal differentiation score (ReNCell VM [1]; library: Spectrum): inactive: 1 | dopaminergic neuron differentiation score (ReNCell VM [2]; library: Spectrum): inactive: 0

COc1cc(O)c2c(c1)C(=O)c1cc(C)cc(O)c1C2=O
neuronal differentiation score (ReNCell VM [1]; library: Spectrum): inactive: 0 | dopaminergic neuron differentiation score (ReNCell VM [2]; library: Spectrum): inactive: 0

CCCCCCN(CCCCCC)C(=O)Cc1c(-c2ccc(F)cc2)[nH]c2ccccc12 [N,N-Dihexyl-2-(4-fluorophenyl)indole-3-acetamide]
neuronal differentiation score (ReNCell VM [1]; library: LOPAC): inactive: 0 | dopaminergic neuron differentiation score (ReNCell VM [2]; library: LOPAC): inactive: 0

C[C@]12CCC(=O)C=C1C=C[C@@H]1[C@@H]2CC[C@@]2(C)[C@H]1CC[C@@]21CCC(=O)O1
neuronal differentiation score (ReNCell VM [1]; library: Spectrum): active: 3 | dopaminergic neuron differentiation score (ReNCell VM [2]; library: Spectrum): inactive: 0

CCCCc1nn(-c2ccccc2C(F)(F)F)c(=O)n1Cc1ccc(-c2ccccc2S(=O)(=O)NC(=O)c2sccc2C)cc1
neuronal differentiation score (ReNCell VM [1]; library: Tocriscreen): inactive: 0 | dopaminergic neuron differentiation score (ReNCell VM [2]; library: Tocriscreen): inactive: 0

CC(=O)[C@]1(O)Cc2c(O)c3c(c(O)c2[C@@H](O[C@H]2C[C@H](N)[C@H](O)[C@H](C)O2)C1)C(=O)c1ccccc1C3=O [Idarubicin]
neuronal differentiation score (ReNCell VM [1]; library: LOPAC): inactive: 0 | dopaminergic neuron differentiation score (ReNCell VM [2]; library: LOPAC): inactive: 0

N=C(N)SCCc1ccc(OCc2ccc([N+](=O)[O-])cc2)cc1 [KB-R7943 mesylate]
neuronal differentiation score (ReNCell VM [1]; library: Tocriscreen): inactive: 0 | dopaminergic neuron differentiation score (ReNCell VM [2]; library: Tocriscreen): inactive: 0

NNC(=O)c1ccncc1.Nc1ccc(C(=O)O)c(O)c1
neuronal differentiation score (ReNCell VM [1]; library: Spectrum): inactive: 0 | dopaminergic neuron differentiation score (ReNCell VM [2]; library: Spectrum): inactive: 0

— the supplement of paper PMC4635364
